Values from PubChem BioAssay AID504791 (Drosophila RNAi Screening Center, 2011)
Assay: 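Factors in Argonaute-based small RNA production and activity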 (primary screen). Cell system: Drosophila S2-derived reporter cells. Reagents: long dsRNA against Drosophila genes, about 150-250 ng dsRNA per well (siRNA assay); about 80-120 ng (miRNA assay). Duration: about 5 days (siRNA assay); about 4 days (miRNA assay). Treatment: copper sulfate induction of reporters: 25 µM (siRNA assay); 200 mM stated (miRNA assay), 1-2 days before reading. Measurement: 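Dual luciferase assay: Renilla to firefly signal ratio in each well, scaled to the mean ratio of its plate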. Scale: siRNA reporter hit score: higher = 3 marks a strong hit with raised ratio; -3 a strong hit with lowered ratio. Hit rule: 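First-pass picks had plate-scaled ratios over 1.5 for the siRNA assay, over 1.6 for the miRNA assay, or under 0.6; two distinct dsRNAs had to score alike on retest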.
The screen tested about 23,000 reagents; below is an unselected part of those with a known target gene and a result. In the full data, 199 (0.86%) got an active call. 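Plate-scaled ratios behind the calls are not deposited; printed light signals are raw; many rows marked increased or decreased are still called inactive.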 A number with no mark means an inactive call. Names joined by + are all predicted targets of the reagent. No sequences are given here.

gene knocked down | amplicon | siRNA reporter hit score | stable siRNA reporter change | miRNA reporter change | stable assay Renilla, run 1 (luminescence) | stable assay firefly, run 1 (luminescence)
Lcp9 | DRSC04287 | – | – | – | 7374 | 4.65e5
CG14252 | DRSC14747 | – | – | – | 7114 | 3.55e5
sds22 | DRSC17052 | – | – | – | 6507 | 3.68e5
CG15841 (retired record) + Acp33A | DRSC01859 | – | – | – | 6627 | 4.16e5
CG30392 | DRSC22341 | – | – | – | 8580 | 4.44e5
CG17931 + CG42446 | DRSC15293 | – | – | – | 6383 | 2.74e5
CG15142 | DRSC02443 | – | – | – | 7002 | 3.41e5
su(Hw) | DRSC17074 | – | – | – | 8178 | 4.58e5
CG8520 | DRSC07206 | – | – | – | 7687 | 4.32e5
CG14143 | DRSC10146 | – | – | – | 5902 | 3.24e5
Vang | DRSC07570 | – | – | – | 6720 | 3.91e5
cer | DRSC05992 | – | – | – | 6510 | 3.61e5
vnd | DRSC17360 | – | – | – | 8974 | 4.67e5
vnd | DRSC18849 | – | – | – | 4267 | 3.07e5
vnd | DRSC22487 | – | – | – | 3375 | 3.46e5
CG8773 | DRSC16444 | – | – | – | 8139 | 4.55e5
pins | DRSC17043 | – | – | – | 7007 | 4.53e5
Ubqn | DRSC19581 | – | – | – | 6848 | 4.83e5
CG4074 + CG4186 | DRSC11753 | – | – | – | 6998 | 3.65e5
RNaseP:RNA | DRSC22967 | – | – | – | 5864 | 5.43e5
CG12992 | DRSC19512 | – | – | – | 5462 | 4.93e5
CG15260 | DRSC01977 | – | – | – | 7426 | 4.01e5
CG32236 | DRSC08117 | – | – | – | 5427 | 4.22e5
aralar1 | DRSC13987 | – | – | – | 8190 | 3.56e5
aralar1 | DRSC16901 | – | – | – | 6967 | 3.79e5
Menl-2 + Menl-1 | DRSC07469 | – | – | – | 6370 | 3.73e5
Menl-2 + Menl-1 | DRSC07470 | – | – | – | 6891 | 3.41e5
Mst57Da + alpha4GT2 | DRSC13732 | – | – | – | 7587 | 5.84e5
CG31677 | DRSC22023 | – | – | – | 8714 | 5.43e5
ND-B22 | DRSC03193 | – | – | – | 7027 | 6.14e5
CG43322 | DRSC02280 | – | – | – | 7761 | 4.21e5
LSm1 | DRSC04458 | – | – | – | 6570 | 5.64e5
CG31952 | DRSC00428 | – | – | – | 7666 | 5.68e5
CG31952 | DRSC21997 | – | – | – | 10311 | 5.41e5
CG43996 | DRSC19456 | – | – | – | 3643 | 2.83e5
CG43996 | DRSC19457 | – | – | – | 3791 | 2.55e5
ND-20L | DRSC15414 | – | – | – | 5307 | 4.12e5
CG15882 | DRSC19735 | – | – | – | 5467 | 4.37e5
Oli | DRSC02866 | – | – | – | 6918 | 1.34e6
Sid | DRSC16588 | – | – | – | 6680 | 3.27e5
CG17721 | DRSC15253 | – | – | – | 6526 | 4.04e5
FoxP | DRSC15159 | – | – | – | 6490 | 3.63e5
FoxP | DRSC21961 | – | – | – | 8888 | 5.36e5
Pdk | DRSC07504 | – | – | – | 7730 | 4.70e5
CG14736 | DRSC14956 | – | – | – | 5902 | 3.25e5
COX5BL | DRSC02123 | – | – | – | 7004 | 4.50e5
CG6675 | DRSC03735 | – | – | – | 6343 | 4.01e5
CG34273 | DRSC13041 | – | – | – | 4431 | 3.01e5
CG11980 | DRSC14456 | – | – | – | 8912 | 5.11e5
Papss | DRSC11246 | – | – | – | 9483 | 4.30e5
Tmtc3 | DRSC04444 | – | – | – | 1.50e5 | 5.74e5
CG15120 | DRSC06542 | – | – | – | 6495 | 3.15e5
CG40486 | DRSC20619 | – | – | – | 7171 | 4.00e5
CREG | DRSC16595 | – | – | – | 6618 | 4.27e5
Coq2 | DRSC16516 | – | – | – | 7103 | 5.63e5
Coq2 | DRSC21366 | – | – | – | 8654 | 5.28e5
rut | DRSC20367 | 3 | – | – | 4159 | 2.88e5
rut | DRSC22976 | – | – | – | 5454 | 3.94e5
GLS | DRSC07261 | – | – | – | 7226 | 3.72e5
emb | DRSC03528 | – | – | – | 10199 | 6.14e5
CG14573 | DRSC11734 | – | – | – | 6078 | 3.28e5
GlyT | DRSC04512 | – | – | – | 7155 | 3.65e5
CG10477 | DRSC09732 | – | – | – | 7826 | 5.19e5
CG14562 | DRSC11723 | – | – | – | 7346 | 4.21e5
Gbp3 | DRSC15206 | – | – | – | 6931 | 3.35e5
CG33259 | DRSC10854 | – | – | – | 7000 | 4.13e5
mira | DRSC16998 | – | – | – | 7026 | 2.82e5
Sema2a | DRSC07551 | – | – | – | 8111 | 3.57e5
CrebA | DRSC11122 | – | – | – | 7710 | 3.05e5
CG8343 | DRSC04905 | – | – | – | 3.09e5 | 1.56e6
Acsx3 | DRSC14309 | – | – | – | 8660 | 3.94e5
CG4741 | DRSC04485 | – | – | – | 7364 | 4.35e5
Osi23 | DRSC15074 | – | – | – | 6183 | 3.95e5
CG10694 | DRSC14263 | – | – | – | 7874 | 3.81e5
CG7560 | DRSC10879 | – | – | – | 7063 | 4.49e5
CG12909 | DRSC06224 | – | – | – | 7392 | 4.36e5
CG8788 | DRSC07267 | – | – | – | 6667 | 3.92e5
Rrp45 | DRSC20198 | – | – | – | 6608 | 3.75e5
CG44433 | DRSC06517 | – | – | – | 6816 | 4.46e5
CG44433 | DRSC06518 | – | – | – | 6751 | 3.80e5
Osi14 | DRSC12368 | – | – | – | 6180 | 5.17e5
CG31142 | DRSC13647 | – | – | – | 4992 | 4.16e5
Grp170 | DRSC18524 | – | – | – | 6232 | 3.05e5
wde | DRSC05955 | – | – | – | 8499 | 3.35e5
yellow-d | DRSC04589 | – | – | – | 6659 | 3.64e5
Hph | DRSC12164 | – | – | – | 11411 | 5.29e5
Hph | DRSC12251 | – | – | – | 6120 | 2.96e5
CG32643 | DRSC18962 | – | – | – | 4788 | 3.98e5
ssp | DRSC10252 | – | – | – | 7152 | 3.83e5
CG30121 (retired record) | DRSC21481 | – | – | – | 7749 | 4.56e5
jigr1 | DRSC13724 | – | – | – | 5536 | 4.42e5
jigr1 | DRSC15233 | – | – | – | 5979 | 3.61e5
jigr1 | DRSC22617 | – | – | – | 2931 | 3.17e5
CG3124 | DRSC04339 | – | – | – | 4635 | 2.58e5
CG3124 | DRSC23062 | – | – | – | 3583 | 2.79e5
Lst8 | DRSC18262 | – | – | – | 7982 | 5.67e5
CG6041 | DRSC18396 | – | – | – | 6471 | 2.52e5
abs | DRSC12372 | – | – | – | 8475 | 4.33e5
CG15125 | DRSC06547 | – | – | – | 5188 | 3.15e5
RpL14 | DRSC11269 | – | – | reporter ratio lowered past the hit cutoff | 8003 | 4.26e5
CG8870 | DRSC16452 | – | – | – | 7706 | 4.01e5
Usp8 | DRSC15876 | – | – | – | 10242 | 4.20e5
Nt5a | DRSC08561 | – | – | – | 9307 | 4.16e5
brwl | DRSC01080 | – | – | – | 4135 | 3.09e5
brwl | DRSC02729 | – | – | – | 5272 | 2.68e5
vers | DRSC10715 | – | reporter ratio raised past the hit cutoff | – | 7815 | 2.66e5
vers | DRSC23232 | – | – | – | 4475 | 2.93e5

In a second layout: 13 of the entries above.
GlyT [DRSC04512]: stable assay Renilla, run 1 (luminescence) = 7155; stable assay firefly, run 1 (luminescence) = 3.65e5
CG10477 [DRSC09732]: stable assay Renilla, run 1 (luminescence) = 7826; stable assay firefly, run 1 (luminescence) = 5.19e5
CG14562 [DRSC11723]: stable assay Renilla, run 1 (luminescence) = 7346; stable assay firefly, run 1 (luminescence) = 4.21e5
Gbp3 [DRSC15206]: stable assay Renilla, run 1 (luminescence) = 6931; stable assay firefly, run 1 (luminescence) = 3.35e5
CG33259 [DRSC10854]: stable assay Renilla, run 1 (luminescence) = 7000; stable assay firefly, run 1 (luminescence) = 4.13e5
mira [DRSC16998]: stable assay Renilla, run 1 (luminescence) = 7026; stable assay firefly, run 1 (luminescence) = 2.82e5
Sema2a [DRSC07551]: stable assay Renilla, run 1 (luminescence) = 8111; stable assay firefly, run 1 (luminescence) = 3.57e5
CrebA [DRSC11122]: stable assay Renilla, run 1 (luminescence) = 7710; stable assay firefly, run 1 (luminescence) = 3.05e5
CG8343 [DRSC04905]: stable assay Renilla, run 1 (luminescence) = 3.09e5; stable assay firefly, run 1 (luminescence) = 1.56e6
Acsx3 [DRSC14309]: stable assay Renilla, run 1 (luminescence) = 8660; stable assay firefly, run 1 (luminescence) = 3.94e5
CG4741 [DRSC04485]: stable assay Renilla, run 1 (luminescence) = 7364; stable assay firefly, run 1 (luminescence) = 4.35e5
Osi23 [DRSC15074]: stable assay Renilla, run 1 (luminescence) = 6183; stable assay firefly, run 1 (luminescence) = 3.95e5
CG10694 [DRSC14263]: stable assay Renilla, run 1 (luminescence) = 7874; stable assay firefly, run 1 (luminescence) = 3.81e5
